These results are taken from PMC2905097.

Amino acid sequences for entries named in this document (tags omitted).
UniProt Q7TQN4: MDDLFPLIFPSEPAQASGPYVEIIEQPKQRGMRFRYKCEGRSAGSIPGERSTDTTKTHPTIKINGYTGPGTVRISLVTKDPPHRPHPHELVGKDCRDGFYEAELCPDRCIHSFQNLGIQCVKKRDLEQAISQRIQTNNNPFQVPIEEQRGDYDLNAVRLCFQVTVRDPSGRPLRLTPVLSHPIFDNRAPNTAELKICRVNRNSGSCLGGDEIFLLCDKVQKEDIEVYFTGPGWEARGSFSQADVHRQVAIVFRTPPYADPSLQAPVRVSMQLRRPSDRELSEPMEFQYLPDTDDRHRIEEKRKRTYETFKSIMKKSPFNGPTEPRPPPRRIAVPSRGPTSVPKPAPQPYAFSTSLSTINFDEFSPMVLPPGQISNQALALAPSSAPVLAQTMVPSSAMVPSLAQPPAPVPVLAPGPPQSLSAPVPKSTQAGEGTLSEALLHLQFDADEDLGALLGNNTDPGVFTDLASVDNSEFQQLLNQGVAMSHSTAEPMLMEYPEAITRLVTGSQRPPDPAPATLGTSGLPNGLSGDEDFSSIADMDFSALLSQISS
UniProt P10361: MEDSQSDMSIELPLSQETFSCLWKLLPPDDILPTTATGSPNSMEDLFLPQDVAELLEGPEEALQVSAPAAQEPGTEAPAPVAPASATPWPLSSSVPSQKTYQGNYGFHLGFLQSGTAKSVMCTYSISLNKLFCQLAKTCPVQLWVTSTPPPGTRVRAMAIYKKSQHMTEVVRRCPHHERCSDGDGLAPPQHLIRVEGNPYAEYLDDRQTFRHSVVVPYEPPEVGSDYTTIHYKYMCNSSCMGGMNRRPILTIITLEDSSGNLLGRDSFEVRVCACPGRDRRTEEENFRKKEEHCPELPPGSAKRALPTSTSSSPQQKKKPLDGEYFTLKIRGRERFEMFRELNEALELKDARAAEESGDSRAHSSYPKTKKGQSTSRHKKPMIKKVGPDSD
UniProt P52631: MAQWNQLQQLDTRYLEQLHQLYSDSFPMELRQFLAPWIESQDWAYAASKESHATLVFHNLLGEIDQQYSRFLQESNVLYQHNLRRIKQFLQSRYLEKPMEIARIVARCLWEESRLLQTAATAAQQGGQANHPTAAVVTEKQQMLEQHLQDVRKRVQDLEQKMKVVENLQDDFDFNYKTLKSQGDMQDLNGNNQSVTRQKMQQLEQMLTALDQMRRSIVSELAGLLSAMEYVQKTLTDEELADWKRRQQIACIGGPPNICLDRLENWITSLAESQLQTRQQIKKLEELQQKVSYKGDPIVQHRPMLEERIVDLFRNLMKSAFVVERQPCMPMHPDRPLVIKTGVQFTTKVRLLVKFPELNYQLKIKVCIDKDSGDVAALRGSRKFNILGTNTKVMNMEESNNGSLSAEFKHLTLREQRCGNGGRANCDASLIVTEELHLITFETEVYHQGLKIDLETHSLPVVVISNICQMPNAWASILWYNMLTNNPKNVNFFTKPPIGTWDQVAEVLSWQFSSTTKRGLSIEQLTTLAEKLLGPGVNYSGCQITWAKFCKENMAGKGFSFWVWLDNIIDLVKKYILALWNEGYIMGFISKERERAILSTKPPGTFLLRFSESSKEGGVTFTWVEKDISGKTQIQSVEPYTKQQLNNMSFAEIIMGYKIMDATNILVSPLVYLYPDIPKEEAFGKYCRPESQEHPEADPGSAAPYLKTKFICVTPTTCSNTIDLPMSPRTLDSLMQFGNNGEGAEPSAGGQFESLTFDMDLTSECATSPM

Experiment [1] concerns the target NF-κB/RELA, endogenous in rat cardiac fibroblasts (rat (endogenous in primary neonatal rat cardiac fibroblasts)) (UniProt Q7TQN4). Description: condition: only cells treated with 1 μM NFI (NF-κB activation inhibitor); co-IP; as a1, but cardiac fibroblasts treated with DFX and 1 μM NF-κB activation inhibitor (NFI, quinazoline).
For experiment [2] the target is unchanged. Briefly: co-IP; endogenous proteins in whole-cell lysates of rat cardiac fibroblasts treated with DFX (p53-RELA also kept with S3I-201, Figure 6e); RELA IP blotted for p53 and STAT3, p53 IP blotted for RELA; control IgG; protein A beads, overnight at 4°C, washed with phosphate-buffered saline.
The target is the same in experiment [3]. Description: condition: only cells treated with the STAT3 inhibitor S3I-201 (100 μM); co-IP; as a1, but cardiac fibroblasts treated with DFX and the STAT3 inhibitor S3I-201 (100 μM); RELA IP blotted for STAT3.

Results are given in words; binding and its absence hold for the method and conditions named. Binding seen in cells or lysates may run through a third protein. Some binding calls cover weakened binding; strength is not graded here.

Take “p53, endogenous in rat cardiac fibroblasts (from UniProt P10361 1-391)”: the binding result in experiment [1] was “no binding”; in experiment [2], “binds”.

Consider “STAT3, endogenous in rat cardiac fibroblasts (from UniProt P52631 1-770)”, for which the binding result is listed as “binds” in experiment [2] and “no binding” in experiment [3].
